# Data published in patent US20060094111, “DNA containing variant FRT sequences” (published 2006).
# Protein sequences can lack the tags named with them.
# Target: T1, FLP recombinase (Saccharomyces cerevisiae) (UniProt P03870)
# T1 sequence (looked up, limits assumed): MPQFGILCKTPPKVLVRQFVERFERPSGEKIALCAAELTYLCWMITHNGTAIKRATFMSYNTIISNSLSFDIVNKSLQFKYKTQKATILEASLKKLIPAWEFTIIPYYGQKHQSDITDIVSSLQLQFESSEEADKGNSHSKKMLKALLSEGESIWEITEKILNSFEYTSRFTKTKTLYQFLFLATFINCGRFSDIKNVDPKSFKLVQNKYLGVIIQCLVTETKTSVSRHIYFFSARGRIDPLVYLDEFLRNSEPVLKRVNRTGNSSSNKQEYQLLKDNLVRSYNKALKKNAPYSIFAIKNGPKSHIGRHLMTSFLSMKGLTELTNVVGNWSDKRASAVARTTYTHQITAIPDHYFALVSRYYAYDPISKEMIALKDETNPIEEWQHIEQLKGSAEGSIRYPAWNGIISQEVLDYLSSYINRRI
# Assay: activity assay
# Details: mutant x wild-type FRT, below detection; binding not measured; protein in a lysate after overexpression; variant of wild-type FRT
row,Sequence,activity on this sequence [%]
1,TCGAGGACGTCGAAGTTCCTATACTATCTTGAGAATAGGAACTTCTCCGGAA / CTAGTTCCGGAGAAGTTCCTATTCTCAAGATAGTATAGGAACTTCGACGTCC [f2262 mutant FRT],< 0.2
2,TCGAGGACGTCGAAGTTCCTATACTATTTGAAGAATAGGAACTTCTCCGGAA / CTAGTTCCGGAGAAGTTCCTATTCTTCAAATAGTATAGGAACTTCGACGTCC [F3 mutant FRT],< 0.2
3,TCGAGGACGTCGAAGTTCCTATACTCTCTGGAGAATAGGAACTTCTCCGGAA / CTAGTTCCGGAGAAGTTCCTATTCTCCAGAGAGTATAGGAACTTCGACGTCC [f2161 mutant FRT],< 0.2
4,TCGAGGACGTCGAAGTTCCTATACTTTCTACAGAATAGGAACTTCTCCGGAA / CTAGTTCCGGAGAAGTTCCTATTCTGTAGAAAGTATAGGAACTTCGACGTCC [f72 mutant FRT],< 0.2
